# From patent US20140243374A1, “Novel Sulfonamides” (The Brigham and Women's Hospital, Inc., priority 2011, published 2014)
# For at least one compound, name, drawing or mass did not settle the structure.
# Target: T1, γ-secretase (cleavage of Notch) (Homo sapiens, UniProt P49768)
# T1 construct: endogenous in cells; host or cells: U2OS luciferase reporter cells with Tet-on Notch
# Assay: Notch cellular assay (luciferase reporter U2OS cells)
# Type: cell-based
# Details: ratio Notch luciferase IC50 to Aβ42 IC50
# Protocol: This assay was used to determine if the compounds of interest inhibit the cleavage of Notch by γ-secretase in cells. A U2OS cell line in which the luciferase expression is adjusted by active Notch was used in this assay Notch expression is adjusted using Tet-on promoter. Luciferase reporter U2OS cells are plated at 1000 cells/well in 96 well plates in DMEM containing 100 μg/mL hygromycin, 15 μg/mL blasticidin and 1 μg/mL Tetracycline. Compounds were added 24 h after plating and the cells are lysed 6 days after adding compounds. Luciferase expression was performed using Steady-Glo Luciferase Assay System (Promega).
row,SMILES,Notch Luc/Aβ42
1,"COC(=O)c1ccc(CN(C2CCCCC2C)S(=O)(=O)c2ccc(Cl)cc2)cc1 (stereo not drawn) [Example 2, Methyl 4-((4-chloro-N-(2-methylcyclohexyl)phenylsulfonamido)methyl)benzoate]",882
2,"CC1CCCCC1N(Cc1ccc(C(=O)NCCN(C)C)cc1)S(=O)(=O)c1ccc(Cl)cc1 (stereo not drawn) [Example 40, 4-((4-Chloro-N-(2-methylcyclohexyl)phenylsulfonamido)methyl)-N-(2-(dimethylamino)ethyl)benzamide]",118
3,"CC1CCCCC1N(Cc1ccc(C(=O)NC(C)(C)CO)cc1)S(=O)(=O)c1ccc(Cl)cc1 (stereo not drawn) [Example 37, 4-((4-Chloro-N-(2-methylcyclohexyl)phenylsulfonamido)methyl)-N-(1-hydroxy-2-methylpropan-2-yl)benzamide]",122
